Construct, isoform or probe ends are uncertain for at least one entry. For some assays here: No signal at the amounts used counts as a negative. For some assays here: Where a protein sequence is shown, tags need not be part of it.
Columns and labels:
[1] = target: T1, NF-kappaB p50 (Homo sapiens) (UniProt P19838); test: binding assay; settings: purified recombinant protein, protein details: Promega
T1 sequence (looked up, limits assumed): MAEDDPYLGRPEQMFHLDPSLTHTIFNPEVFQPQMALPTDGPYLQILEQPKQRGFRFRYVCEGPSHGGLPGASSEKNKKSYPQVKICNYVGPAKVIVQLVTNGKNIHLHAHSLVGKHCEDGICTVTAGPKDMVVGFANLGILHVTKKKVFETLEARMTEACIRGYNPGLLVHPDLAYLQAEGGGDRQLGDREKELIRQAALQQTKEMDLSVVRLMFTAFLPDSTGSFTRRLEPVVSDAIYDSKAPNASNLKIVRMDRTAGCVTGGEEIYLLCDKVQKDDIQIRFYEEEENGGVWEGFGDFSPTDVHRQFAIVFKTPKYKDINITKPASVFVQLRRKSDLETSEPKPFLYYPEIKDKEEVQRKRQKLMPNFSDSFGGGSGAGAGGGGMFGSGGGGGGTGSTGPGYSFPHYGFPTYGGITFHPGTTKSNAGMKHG

By UniProt entry, the sequences of proteins in these tests, tags left out. Residues count along the entry.
UniProt Q15554, 87-542, stated change not applied: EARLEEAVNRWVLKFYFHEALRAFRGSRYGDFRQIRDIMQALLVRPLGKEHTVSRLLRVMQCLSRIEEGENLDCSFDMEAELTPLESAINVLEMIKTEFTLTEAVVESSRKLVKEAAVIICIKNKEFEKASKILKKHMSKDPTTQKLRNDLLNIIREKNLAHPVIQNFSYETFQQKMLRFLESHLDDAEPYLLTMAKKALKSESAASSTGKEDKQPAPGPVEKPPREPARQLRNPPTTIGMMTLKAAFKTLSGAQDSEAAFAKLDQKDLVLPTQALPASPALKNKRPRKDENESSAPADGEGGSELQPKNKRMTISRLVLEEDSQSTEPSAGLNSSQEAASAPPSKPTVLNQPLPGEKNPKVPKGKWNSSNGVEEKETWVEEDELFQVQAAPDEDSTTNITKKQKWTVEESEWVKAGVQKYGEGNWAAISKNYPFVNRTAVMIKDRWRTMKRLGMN
UniProt P08047, 2-785: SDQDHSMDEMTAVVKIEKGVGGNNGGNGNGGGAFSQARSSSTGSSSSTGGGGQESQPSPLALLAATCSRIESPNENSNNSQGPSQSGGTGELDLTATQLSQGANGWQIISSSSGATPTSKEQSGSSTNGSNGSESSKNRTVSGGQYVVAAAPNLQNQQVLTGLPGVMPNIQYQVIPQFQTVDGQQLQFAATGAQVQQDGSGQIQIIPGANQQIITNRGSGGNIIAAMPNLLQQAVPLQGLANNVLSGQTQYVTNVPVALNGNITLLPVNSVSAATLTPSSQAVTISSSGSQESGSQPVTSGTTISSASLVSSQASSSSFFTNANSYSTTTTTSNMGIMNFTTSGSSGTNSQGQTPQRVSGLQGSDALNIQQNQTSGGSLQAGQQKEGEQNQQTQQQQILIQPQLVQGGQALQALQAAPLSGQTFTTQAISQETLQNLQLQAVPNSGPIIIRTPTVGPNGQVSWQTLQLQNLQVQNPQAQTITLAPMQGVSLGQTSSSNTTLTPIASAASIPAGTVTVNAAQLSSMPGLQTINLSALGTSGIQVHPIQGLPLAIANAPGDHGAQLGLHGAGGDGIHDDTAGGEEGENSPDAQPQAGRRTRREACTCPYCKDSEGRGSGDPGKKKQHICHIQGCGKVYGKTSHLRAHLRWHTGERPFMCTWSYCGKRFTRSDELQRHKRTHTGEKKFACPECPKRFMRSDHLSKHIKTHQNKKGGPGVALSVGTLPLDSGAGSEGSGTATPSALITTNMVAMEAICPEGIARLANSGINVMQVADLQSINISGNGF
UniProt P05412, whole entry: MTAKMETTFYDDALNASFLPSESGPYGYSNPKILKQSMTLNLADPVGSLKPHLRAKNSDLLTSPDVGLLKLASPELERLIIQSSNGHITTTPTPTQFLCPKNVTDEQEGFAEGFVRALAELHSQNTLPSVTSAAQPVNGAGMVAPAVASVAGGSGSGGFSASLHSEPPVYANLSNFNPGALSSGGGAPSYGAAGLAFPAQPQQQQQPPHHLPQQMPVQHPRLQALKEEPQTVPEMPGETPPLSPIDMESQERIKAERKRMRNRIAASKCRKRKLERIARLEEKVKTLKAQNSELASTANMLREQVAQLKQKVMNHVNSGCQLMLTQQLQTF

[2] = target: TRF2 deltaB (residues 45-500) (Homo sapiens) (UniProt Q15554); test: binding assay; settings: 150 mM KCl, purified recombinant protein, protein details: His tag, Sf9 baculovirus
SP1 (Homo sapiens) = SP1 (Homo sapiens) (UniProt P08047); test: binding assay; settings: purified recombinant protein, protein details: Promega
[3] = target: AP1 (c-Jun) (Homo sapiens) (UniProt P05412); test: binding assay; settings: purified recombinant protein, protein details: Promega
[4] = target: T1, NF-kappaB p50 (Homo sapiens); test: competition with a labelled probe; settings: purified recombinant protein; protein details: Promega; variant of NFcpt decoy (NF01/02)

AGTTGAGGGGACTTTCCCAGGCCTCACGCACACCAGC / CCCTCCTTGCTCGTCTTGCCTGGGAAAGTCCCCTCAACT [31F/42]
binding result ([1]; strand-exchange assay with 32D/41, inhibited by aurothioglucose and NF decoy, 25 C, label: 5' fluorescein on SEQ 45): binds

AGTTGAGGGGACTTTCCCAGGCGACTCACTATAGGCGGTGTCTCGCTCGC / GGGAATGGTGTGGTGCCTATAGTGAGTCGCCTGGGAAAGTCCCCTCAACT [NF01F/14D]
binding result ([1]; fluorescence lowered about 30% with NF02/13, 50% or more with mismatched partners, 37 C, label: 5' fluorescein on SEQ 37, 3' DABCYL on SEQ 38): binds

AGTTGAGGGGACTTTCCCAGGCGACTCACTATAGGCGGTGTCTCGCTCGC / GGGAATGGTGTGGTGCCTATAGTGAGTCGCCTGGGAAAGTCCCCTCAACT [NFkB duplex 01F/14D]
binding result ([1]; strand-exchange fluorescence assay, 30 C, label: 5' 6-FAM on SEQ 5, 3' DABCYL on SEQ 8): binds

AGTTGAGGGGACTTTCCCAGGCGACTCACTATAGGCGGTGTCTCGCTCGC / GGGAATGGTGTGGTGCCTATAGTGAGTCGCCTGGGAAAGTCCCCTCAACT [NFkB duplex 01F/14]
binding result ([1]; strand-exchange fluorescence assay, p50 dose-dependent, 30 C, ZnSO4 1 uM, label: 5' 6-FAM on SEQ 1): binds

AGTTGAGTTAGCGTTAGCGTTAGCGTTAGCGCAGGCGGTGTCTCGCTCGC / GGGAATGGTGTGGTGCCTGCGCTAACGCTAACGCTAACGCTAACTCAACT [T13C/16]
binding result ([2]; strand-exchange fluorescence assay with T14B/15, 25 C, label: 5' Cy3 on SEQ 25, variant of T01C/06): no binding

AGTTGAGTTAGGGTTAGGGTTAGGGTTAGGGCAGGCGGTGTCTCGCTCGC / GGGAATGGTGTGGTGCCTGCCCTAACCCTAACCCTAACCCTAACTCAACT [T01C/06]
binding result ([2]; strand-exchange fluorescence assay with T02B/05, 25 C, label: 5' Cy3 on SEQ 21): binds

ATTCGATCGGGGCGGGGCGACGAGCGGGAATGGACAGGTT / CGGTCAGAGAGTAGCCTGCTCGTCGCCCCGCCCCGATCGAAT [05C/08]
binding result (SP1 (Homo sapiens); multiplexed strand-exchange assay with 06B/07, p50 also present, 25 C, label: 5' Cy3 on SEQ 65): binds

ATTCGATCGGGGCGGGGCGACGAGCGGGAATGGACAGGTT / CGGTCAGAGAGTAGCCTGCTCGTCGCCCCGCCCCGATCGAAT [SP05C/08B]
binding result (SP1 (Homo sapiens); strand exchange suppressed, more with mismatched partners, 25 C, label: 5' Cy3 on SEQ 29, 3' BHQ1 on SEQ 30): binds

CGCTTGATGAGTCAGCCGGAAGTGGTTGGGTAAGGG / ATATCGTCCTGTCCGTTCCGGCTGACTCATCAAGCG [AP01C/04B]
binding result ([3]; strand-exchange fluorescence assay with AP02/03, 30 C, MgCl2, label: 5' Cy5 on SEQ 13, 3' BHQ3 on SEQ …): binds
binding result (SP1 (Homo sapiens); strand-exchange fluorescence assay with AP02/03, 30 C, Zn, label: 5' Cy5 on SEQ 13, 3' BHQ3 on SEQ 16): no binding

CTCACGCACACCAGCGGGGACTTTCCCAGTATATAAAGACGAGCAAGCGG / GGTCAGAGAGTAGCCTATATACTGGGAAAGTCCCCGCTGGTGTGCGTGAG / CCGCTTGCTCGTCTTTATATACTGTGAACGTCACCAACCTGTCCATTCCC / GGGAATGGACAGGTTGAGGACTTACCCAGTATATAGGCTACTCTCTGACC [integrated tetramer Af/B5/C4/Dd]
binding result ([1]; fluorescence suppressed by p50, 25 C, folded or branched DNA): binds

GCACTAAGGACTTTGCGCCACG (double strand) [NF03/04 decoy]
binding result [4]: no binding

GGGATTCGATCGGGGCGGGGCGACGAGCGTGGTTGGGTAAGGG / GGGAATGGTGTGGTGGCTCGTCGCCCCGCCCCGATCGAATCCC [SP01A/04B]
binding result ([3]; strand-exchange fluorescence assay with SP02/03, 30 C, label: 5' Alexa 647 on SEQ 17, 3' BHQ3 on SEQ 20): no binding
binding result (SP1 (Homo sapiens); strand-exchange fluorescence assay with SP02/03, 30 C, Zn, label: 5' Alexa 647 on SEQ 17, 3' BHQ3 on SEQ 20): binds
